{"source": "PubChem BioAssay AID1259308 | NCATS | 2017", "aim": "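Genes whose loss raises luciferase production in HEK293 cells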 (primary screen)", "cell system": "human HEK293 embryonic kidney cells stably expressing firefly luciferase (HEK-CMV-Luc2-Hygro)", "knock-down reagent": "single siRNA against human genes, 0.8 pmol siRNA per well", "duration": "72 h", "measurement": "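Luciferase light (ONE-Glo) measured on one replicate plate set and viability (CellTiter-Glo) on the other, scaled to a negative control siRNA, with robust z-scores and luciferase per cell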", "direction": "total luciferase, z-score: higher = more reporter protein produced", "call rule": "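An siRNA counts as active if its total luciferase robust z-score exceeds 3; genes with two or more such siRNAs out of three were retested with fresh siRNAs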", "calls": "active = raised luciferase; inactive = no rise", "note": "Shown is an unselected part of about 59,000 reagents. About 1,510 of them (2.6%) were called active. 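Calls use total luciferase alone and ignore viability, so some active siRNAs may act by altering cell number.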 Unmarked entries are inactive. The numbers tell different reagents against one gene apart. Further read-outs or replicates are left out here."}
{"gene knocked down": "MED14OS", "reagent no.": 1, "total luciferase, z-score": 0.9}
{"gene knocked down": "MED14OS", "reagent no.": 2, "total luciferase, z-score": 2.48}
{"gene knocked down": "MED14OS", "reagent no.": 3, "total luciferase, z-score": 0.99}
{"gene knocked down": "SERPINB13", "reagent no.": 1, "total luciferase, z-score": 0.713}
{"gene knocked down": "SERPINB13", "reagent no.": 2, "total luciferase, z-score": -0.836}
{"gene knocked down": "SERPINB13", "reagent no.": 3, "total luciferase, z-score": -0.163}
{"gene knocked down": "LAMA5", "reagent no.": 1, "total luciferase, z-score": -1.02}
{"gene knocked down": "LAMA5", "reagent no.": 2, "total luciferase, z-score": -1.35}
{"gene knocked down": "LAMA5", "reagent no.": 3, "total luciferase, z-score": 0.67}
{"gene knocked down": "IL20", "reagent no.": 1, "total luciferase, z-score": -1.6}
{"gene knocked down": "IL20", "reagent no.": 2, "total luciferase, z-score": "3.04 (active)"}
{"gene knocked down": "IL20", "reagent no.": 3, "total luciferase, z-score": 0.21}

In a second layout: 2 of the entries above
{"gene knocked down":"LAMA5","reagent no.":2,"total luciferase, z-score":-1.35}
{"gene knocked down":"LAMA5","reagent no.":3,"total luciferase, z-score":0.67}
